Assay results reported in paper PMC2593702, “Purification, crystallization and X-ray structures of the two manganese superoxide dismutases from Caenorhabditis elegans” (Acta Crystallographica Section F, 2008).
These are yes or no findings as the source states them, for the method shown. Some binding calls cover weakened binding; strength is not graded here.

Columns and labels:
[1] = biological target: Caenorhabditis elegans manganese superoxide dismutase MnSOD-2 (Caenorhabditis elegans) (UniProt P31161); assay: crystal structure; hanging drop, 0.1 M Bicine pH 9.2 with 3.0 M (MnSOD-2) or 2.7 M (MnSOD-3) ammonium sulfate, 291 K; space group P4(1)2(1)2, two subunits per asymmetric unit; data at 100 K (MnSOD-3 also at 293 K); both purified
[2] = biological target: Caenorhabditis elegans manganese superoxide dismutase MnSOD-3 (Caenorhabditis elegans) (UniProt P41977); assay: as above

binding [1] | binding [2] | Binder
binds | – | Caenorhabditis elegans manganese superoxide dismutase MnSOD-2 (enzyme, N-terminal methionine of the expression construct, retained in the purified protein by mass spectrometry; Superoxide dismutase [Mn]; Expressed without a histidine tag; Cloning is as in Hunter et al., 1997) MKHSLPDLPYDYADLEPVISHEIMQLHHQKHHATYVNNLNQIEEKLHEAVSKGNVKEAIALQPALKFNGGGHINHSIFWTNLAKDGGEPSAELLTAIKSDFGSLDNLQKQLSASTVAVQGSGWGWLGYCPKGKILKVATCANQDPLEATTGLVPLFGIDVWEHAYYLQYKNVRPDYVNAIWKIANWKNVSERFAKAQQ
– | binds | Caenorhabditis elegans manganese superoxide dismutase MnSOD-3 (enzyme, N-terminal methionine of the expression construct, retained in the purified protein by mass spectrometry; Superoxide dismutase [Mn]; Expressed without a histidine tag; Cloning is as in Hunter et al., 1997) MKHTLPDLPFDYADLEPVISHEIMQLHHQKHHATYVNNLNQIEEKLHEAVSKGNLKEAIALQPALKFNGGGHINHSIFWTNLAKDGGEPSKELMDTIKRDFGSLDNLQKRLSDITIAVQGSGWGWLGYCKKDKILKIATCANQDPLEGMVPLFGIDVWEHAYYLQYKNVRPDYVHAIWKIANWKNISERFANARQ
